Substitutions are numbered along the chain they refer to. Results are given in words; binding and its absence hold for the method and conditions named. Binding can be weak; no strength is given. Values belong to the binder of their own block, whether it stands above or below them.
Key:
[1] = biological target: human CLDN18.2 (human) (UniProt P56856); assay: flow cytometry on SP2/0-hCLDN18.2 cells (FIG. 1)
[2] = biological target: human CLDN18.2 (human) (UniProt P56856); assay: flow cytometry on cells (summary of Examples 1-2)
[3] = biological target: human CLDN18.2 (human) (UniProt P56856); assay: flow cytometry on 293T-, CHO- and SP2/0-human CLDN18.2 cells (FIG. 18)
[4] = biological target: human CLDN18.2 (human) (UniProt P56856); assay: flow cytometry on MC38-human CLDN18.2 cells (FIG. 20)

Protein sequences, listed by entry. Tags and fused reporters are not part of them. Lines headed by an entry give the natural chain unless they say otherwise; changes in a name come on top.
UniProt P56856: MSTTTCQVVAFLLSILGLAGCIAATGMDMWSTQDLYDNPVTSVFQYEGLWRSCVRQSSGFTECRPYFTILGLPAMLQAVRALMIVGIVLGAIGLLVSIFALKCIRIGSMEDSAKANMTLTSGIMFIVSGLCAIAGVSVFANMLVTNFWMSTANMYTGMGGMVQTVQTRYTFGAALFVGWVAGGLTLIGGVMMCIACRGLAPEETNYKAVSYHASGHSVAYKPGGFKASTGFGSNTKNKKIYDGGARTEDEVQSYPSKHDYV

binding [1]: binds
B1: Standard antibody (scFv)
scFv: DIVMTQSPDSLAVSLGERATINCKSSQSLFNSGNQKNYLTWYQQKPGQPPKLLIYWASTRESGVPDRFSGSGSGTDFTLTISSLQAEDVAVYYCQNAYSFPYTFGGGTKLEIKRGGGGSGGGGSGGGGSQVQLQESGPGLIKPSQTLSLTCTVSGGSISSGYNWHWIRQPPGKGLEWIGYIHYTGSTNYNPALRSRVTISVDTSKNQFSLKLSSVTAADTAIYYCARIYNGNSFPYWGQGTTVTVSS

binding [1]: binds
binding [2]: binds
B2: 5E6-scFv single-chain antibody (scFv)
scFv: QVQLVQSGAEVKKPGASVKVSCKASGYTFTNYVMNWVRQAPGQRLEWMGYINPYNDGTKYNERFKGRVTITRDTSASTAYMELSSLRSEDTAVYYCARLYRGNAMDYWGQGTLVTVSSASTGGGGSGGGGSGGGGSDIVMTQSPDSLAVSLGERATINCKSSQSLLASGNQKNYLTWYQQKPGQPPKLLIYWASTRESGVPDRFSGSGSGTDFTLTISSLQAEDVAVYYCQNVYIYPFTFGQGTKLEIKR

binding [3]: binds
binding [4]: binds
B3: 5E6 CLDN18.2 antigen-binding protein (antibody, V domains shown)
VH: QVQLVQSGAEVKKPGASVKVSCKASGYTFTNYVMNWVRQAPGQRLEWMGYINPYNDGTKYNERFKGRVTITRDTSASTAYMELSSLRSEDTAVYYCARLYRGNAMDYWGQGTLVTVSS
VL: DIVMTQSPDSLAVSLGERATINCKSSQSLLASGNQKNYLTWYQQKPGQPPKLLIYWASTRESGVPDRFSGSGSGTDFTLTISSLQAEDVAVYYCQNVYIYPFTFGQGTKLEIKR

binding [3]: binds
binding [4]: binds
B4: 7E3 CLDN18.2 antigen-binding protein (antibody, V domains shown)
VH: EVQLQQSGPELVKPGASVKMSCKASGYTFTNYIIHWVKQKPGQGLEWIGYINPYTDGPKYNEKFKGRATLTSDKSSSTAYMEFSSLTSEDSAVYYCARLNRGNAMDYWGQGTSVTVSS
VL: DIVMTQSPSSLTVTVREKVTLSCKSSQSLLNSGNQKNYLTWYQQKPGQPPKLLIYWASTRESGVPDRFTGSGSGTDFTLTISSVQAEDLAVYYCQNVYIYPFTFGAGTKLELKR

binding [3]: binds
binding [4]: binds
B5: 14E12 CLDN18.2 antigen-binding protein (antibody, V domains shown)
VH: B4 VH with Q6E
VL: DIVMTQSPSSLSVSAGEKVTMSCKSSQSLLNNGNQKNYLAWYQQKPGQPPKLLIYGASTRESGVPDRFTGSGSGTDFALTISSVQAEDLAVYYCQNDLYYPFTFGSGTKLDIKR
